The structures appear in SMILES notation. Some of the results follow. Shown are side measurements of this screen, not its main read-out; they come without a call. Compounds called inactive in the main read-out are mostly missing here. Potencies come from curve fits of mixed quality, noted in brackets.

The text below walks through data of PubChem BioAssay AID493014 (National Center for Advancing Translational Sciences (NCATS), 2011).

The assay can be described thus: qHTS Assay to Find Inhibitors of Chronic Active B-Cell Receptor Signaling. The following applies: ABC-DLBCL IkBa-CBG/CBR reporter, luminescence ratio (green luciferase fused to IkBa over red control in TMD8 lymphoma cells), 4 h. In short, it runs like this: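 Doxycycline induced both beetle luciferases in TMD8 lymphoma cells; IKK-driven degradation limits the IkappaBalpha-fused green signal, while red luminescence normalises for cell number and nonspecific effects. Compounds tested up to 46 uM, 4 hrs.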
(qHTS replaces the single test concentration by a dilution series.)

Setting [1] is: measured here: CBR red luminescence, cell number.
The mark [2] stands for this setting: measured here: IkBa-CBG green luminescence.

By AC50 is commonly meant the midpoint of the concentration-response curve, whichever way the signal moves. With `N#Cc1cn(-c2cccc(C(F)(F)F)c2)c(=O)[nH]c1=O`, the AC50 under setting [1] was 11.2 µM [rising, partial curve].

For `CCc1ccc(N2C(=O)CN(CC(=O)OC)C2=S)cc1`, under setting [1], the half-maximal activity concentration (AC50) was 0.316 µM [rising, full curve, poor fit].

Take `CCc1cccc(NC(=O)Cn2c3[n+](c4ccc(C(F)(F)F)cc42)CCCCC3)c1`: the AC50 under setting [1] is 2.91 µM [rising, single point].

For the compound `COc1ccc(NC(=O)/C(=C\c2ccc(F)cc2)NC(=O)c2ccco2)cc1`, under setting [1], the concentration at half-maximal activity (AC50) was 3.55 µM [falling, partial curve, poor fit].

As to `COc1ccccc1-c1cc(C(F)(F)F)nc(N2CCCCC2)n1`, under setting [1], the concentration at half-maximal activity (AC50) is 23.1 µM [rising, single point].

As to `COc1cc(C(C)=O)ccc1OCC(O)CN1CCN(S(=O)(=O)c2ccccc2)CC1` (stereo unspecified), the AC50 under setting [1] is 0.0206 µM [rising, full curve, poor fit].

In the case of `CC1=NC(C(F)(F)F)(C(F)(F)F)C2=C(CC(C)(C)CC2=O)N1Cc1ccco1`, under setting [1], the concentration at half-maximal activity (AC50) was 13 µM [falling, partial curve, poor fit].

Regarding `CNc1ccc(C(=O)OCC(=O)Nc2ccnn2C(C)C)cc1[N+](=O)[O-]`, the AC50 under setting [1] was 9.2 µM [rising, partial curve, poor fit].

Take `Cc1ccc2nc(-c3ccc(NC(=O)CSCC(=O)O)cc3)sc2c1`: under setting [1], the half-maximal activity concentration (AC50) was 15.8 µM [falling, single point].

`O=c1[nH]n(Cc2ccccc2)c(=O)c2ccccc12`: under setting [1], the concentration at half-maximal activity (AC50) is 2 µM [rising, full curve, poor fit].

In the case of `Cc1ccc(N2C(=O)CSCC2=O)cc1`, the half-maximal activity concentration (AC50) under setting [1] was 7.31 µM [rising, partial curve, poor fit].

Turning to `Cc1cc(C)n(-c2ccc(C(=O)Nc3ccccn3)cc2)n1`, the AC50 under setting [1] was 12.6 µM [falling, partial curve, poor fit].

With `Cc1nnc(NC(=O)c2ccc3nccnc3c2)s1`, the AC50 under setting [1] is 18.4 µM [falling, partial curve].

For the compound `CCOc1ccc(CC(=NCCc2ccccc2)C2=C(O)CC(C)(C)CC2=O)cc1OCC`, the AC50 under setting [1] was 8.2 µM [rising, partial curve].

As for `CC(=O)Nc1ccc(S(=O)(=O)N(C)c2ccc(OCCOc3ccccc3F)cc2)cc1`, the AC50 under setting [1] was 8.2 µM [rising, partial curve].

As to `Cc1cccc(NS(=O)(=O)c2ccc(C)c(C(=O)NCC(c3ccccc3)N(C)C)c2)c1` (stereo unspecified), the AC50 under setting [1] was 25.9 µM [falling, partial curve, poor fit].

Consider `Cc1ccccc1C(=O)N1CCN(c2ccc(NC(=S)NC(=O)c3cccs3)cc2)CC1`, for which the AC50 under setting [1] was 1.26 µM [falling, full curve, poor fit].

Take `Nc1ncn([C@@H]2O[C@H](CO)[C@@H](O)[C@H]2O)c(=O)n1`: the AC50 under setting [1] was 6.51 µM [rising, full curve].

For `O=c1oc2ccccc2cc1-c1nc(-c2ccccc2)no1`, the half-maximal activity concentration (AC50) under setting [1] is 2.82 µM [falling, partial curve].

`N#CC(c1ccccc1)c1ccc(C(=O)c2ccc(F)cc2)cc1` (stereo unspecified): the AC50 under setting [1] is 14.6 µM [rising, single point].

With `CC[n+]1c(/C=C2\Sc3ccccc3N2C)ccc2cccc(C)c21`, the AC50 reads like this: under setting [1], 17.8 µM [falling, partial curve, poor fit]; under setting [2], 35.5 µM [rising, single point].

For the compound `CN(C)CCCNc1ccc(-c2n[nH]c(=O)c3ccccc23)cc1[N+](=O)[O-]`, under setting [1], the AC50 is 14.1 µM [falling, single point].

On to `CCC(=O)Nc1ccc(Br)c(Cl)c1`, for which the AC50 under setting [1] was 20.6 µM [rising, single point].

In the case of `COc1ccc(C(C(=O)NC2CCCC2)N(C(=O)c2ccoc2C)c2ccc(C)cc2)cc1` (stereo unspecified), the concentration at half-maximal activity (AC50) under setting [1] is 18.4 µM [falling, single point].

Regarding `CCC(Sc1ncnc2sc(C)c(C)c12)C(=O)OC` (stereo unspecified), the concentration at half-maximal activity (AC50) under setting [1] is 7.31 µM [rising, partial curve, poor fit].

Consider `CSc1cccc(NC(=O)CSc2ncccc2C(=O)Oc2cccc([N+](=O)[O-])c2)c1`, for which the AC50 is 9.2 µM [falling, single point] under setting [1] and 32.6 µM [rising, partial curve, poor fit] under setting [2].

`O=C(CNC(=O)c1ccco1)NCC(=O)OCc1ccc(C(=O)Oc2ccc(Cl)cc2)cc1`: under setting [1], the half-maximal activity concentration (AC50) was 16.4 µM [rising, partial curve, poor fit].

In the case of `O=C(NCCc1ccccc1)c1ccc(Cl)c([N+](=O)[O-])c1`, the AC50 under setting [1] is 35.5 µM [falling, single point].

With `CC1(c2ccc(OC(F)F)cc2)NC(=O)N(CC(=O)Nc2cccc(S(N)(=O)=O)c2)C1=O` (stereo unspecified), the concentration at half-maximal activity (AC50) under setting [1] is 35.5 µM [rising, single point].

On to `Cc1ccccc1NC(=O)C1CC(=O)N(c2ccc3c4c(cccc24)CC3)C1` (stereo unspecified), for which the AC50 under setting [1] is 14.1 µM [falling, partial curve, poor fit].

`O=C(NNC(=S)NC(=O)c1ccccc1)c1ccc([N+](=O)[O-])cc1`: under setting [1], the half-maximal activity concentration (AC50) was 3.55 µM [falling, full curve].

Consider `Cn1c(=O)oc2cc(S(=O)(=O)N3CCC(C(=O)NCCc4ccccc4)CC3)ccc21`, for which the AC50 under setting [1] is 3.16 µM [falling, single point].

For the compound `CCC(C)N(C(=O)COc1ccccc1C(=O)NCc1ccccc1)C1CCS(=O)(=O)C1` (stereo unspecified), under setting [1], the AC50 is 35.5 µM [falling, single point].

Consider `CC(C)(C)N(Cc1ccccc1)C(=O)c1ccc(Br)o1`, for which the AC50 under setting [1] is 8.91 µM [rising, partial curve].

Regarding `Cc1cc(NS(=O)(=O)c2ccc(Nc3nc(-c4ccc(C)c(C)c4)cs3)cc2)no1`, the half-maximal activity concentration (AC50) under setting [1] is 23.1 µM [falling, single point].

In the case of `Cc1cc(NC(=O)c2cc(-c3ccc(C)s3)nc3ccccc23)no1`, under setting [1], the AC50 is 0.291 µM [falling, full curve, poor fit].

As for `COc1ccccc1/C=N/Nc1cc(C)nc(N2CCOCC2)n1`, the concentration at half-maximal activity (AC50) under setting [1] is 17.8 µM [falling, partial curve, poor fit].

Regarding `O=C(NCCc1ccccc1)Nc1ccc(Cl)cc1`, the AC50 under setting [1] was 0.231 µM [rising, full curve, poor fit].

On to `CSc1nc(N)nc(SCC(=O)OC(C)C)c1C#N`, for which the AC50 under setting [1] was 1 µM [rising, partial curve, poor fit].

As to `COc1cc(/C=N/NC(=O)c2nnn(-c3nonc3N)c2C(C)C)ccc1OCc1ccc(F)cc1`, the concentration at half-maximal activity (AC50) under setting [2] was 14.1 µM [rising, partial curve, poor fit].

Consider `O=C(CNC(=O)c1ccc(C(F)(F)F)cc1)NC1CC1`, for which the half-maximal activity concentration (AC50) under setting [1] was 0.00461 µM [rising, full curve, poor fit].

With `Cn1c(=O)[nH]c(NC2CCCCC2)c([N+](=O)[O-])c1=O`, under setting [1], the concentration at half-maximal activity (AC50) was 1.3 µM [rising, full curve].

Turning to `O=C(Nc1ccccc1C(=O)NCC1CCCO1)c1ccccc1` (stereo unspecified), under setting [1], the half-maximal activity concentration (AC50) is 15.8 µM [falling, single point].

Consider `O=c1c(Cl)c(Cl)cnn1Cc1nnc(-c2ccccc2Br)o1`, for which the concentration at half-maximal activity (AC50) under setting [1] was 8.91 µM [falling, partial curve] and the half-maximal activity concentration (AC50) under setting [2] is 11.2 µM [rising, partial curve, poor fit].

Consider `Cc1cc(Cl)ccc1N(CC(=O)N=Nc1c(O)[nH]c2ccccc12)S(C)(=O)=O`, for which the concentration at half-maximal activity (AC50) under setting [1] was 23.1 µM [falling, single point].

On to `Cc1c(C(=O)N2CCCC2)sc(NC(=O)c2ccccc2)c1C#N`, for which the concentration at half-maximal activity (AC50) is 20.6 µM [falling, single point] under setting [1] and 20.6 µM [rising, partial curve, poor fit] under setting [2].

For `Cn1c(NNC(=O)c2c(F)cccc2F)cc(=O)n(C)c1=O`, the concentration at half-maximal activity (AC50) under setting [1] was 0.562 µM [falling, partial curve, poor fit].

Turning to `COc1ccc(-c2nn(-c3ccccc3)cc2/C=C/C(=O)N2CCOCC2)cc1OC`, under setting [1], the AC50 is 11.2 µM [falling, single point].

For `Clc1ccc(COc2ccccc2-c2ccnc3ncnn23)cc1`, under setting [1], the concentration at half-maximal activity (AC50) is 2.51 µM [rising, partial curve].

For the compound `COc1ccccc1NS(=O)(=O)c1cc(NC(=O)c2cccs2)ccc1N1CCCC1`, the concentration at half-maximal activity (AC50) under setting [1] is 9.2 µM [rising, partial curve].

Turning to `COc1cc(NC(=O)c2cccnc2Sc2ccc(C)c(C)c2)cc(OC)c1OC`, the AC50 under setting [1] is 1.84 µM [rising, partial curve, poor fit].

For the compound `O=S(=O)(c1ccc2ccccc2c1)N1C=CC(C(F)(F)F)=NCC1`, the AC50 under setting [1] was 0.651 µM [falling, partial curve, poor fit].

As to `O=C(O)Cc1sc(Nc2ccccc2)nc1-c1cccs1`, under setting [1], the AC50 is 14.1 µM [falling, single point].

For the compound `COC(=O)C1C(O)=C(C(C)=Nc2cccc3ccccc23)C(=O)CC1(C)C` (stereo unspecified), the AC50 under setting [1] was 1.26 µM [rising, partial curve, poor fit].

As to `Cc1c(C(=O)N2CCCc3ccccc32)sc2nc(-c3ccccc3)cn12`, the AC50 under setting [1] was 6.31 µM [falling, single point].

As to `CCc1ccc(OCC(=O)NC(=S)Nc2ccc(C(C)=O)cc2)c(Br)c1`, the AC50 under setting [1] is 0.58 µM [rising, full curve, poor fit].

Take `O=C(CSc1ncc(-c2ccccc2)[nH]1)Nc1ccccc1F`: under setting [1], the concentration at half-maximal activity (AC50) is 2 µM [rising, full curve, poor fit].

In the case of `COc1ccc(/C=C/C(=O)c2c(O)c(OC)c3occc3c2OC)cc1`, the concentration at half-maximal activity (AC50) under setting [2] was 15.8 µM [falling, single point].

On to `COc1cc(NC(=O)c2ccco2)c(OC)cc1NC(=O)Nc1ccccc1Cl`, for which the AC50 under setting [1] was 18.4 µM [rising, single point].

For the compound `Cc1cc(C(=O)COC(=O)c2ccc(N)c([N+](=O)[O-])c2)c(C)n1-c1ccc2c(c1)OCO2`, the AC50 under setting [1] is 5.17 µM [falling, partial curve].

`O=C(/C=C/c1ccco1)N1CCCC(c2ccccc2)C1` (stereo unspecified): the AC50 under setting [1] was 3.98 µM [rising, full curve, poor fit].

On to `S=c1[nH]nc(COc2ccc3ccccc3c2)o1`, for which the AC50 under setting [1] is 5.17 µM [falling, full curve, poor fit].
